## Percent effect of library compounds

Mtb cholesterol medium: 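Whole-cell growth test on Mycobacterium tuberculosis, read after 4 days in a medium based on cholesterol and the lipid DPPC; the read-out is not stated. Tested at 500 µM. The record gives no direction; compounds that gave an IC50 in retests scored well above the rest, so higher reads as more growth inhibition. Of about 18,000 compounds tested this way, about 900 (5%) reached 50% or more in at least one test.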
Mtb glucose medium: 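Growth of Mycobacterium tuberculosis over 3 days (7H9 medium with glucose and tyloxapol); the read-out is not stated. Concentration: 500 µM. The record gives no direction; compounds that gave an IC50 in retests scored well above the rest, so higher reads as more growth inhibition. Size under these conditions: about 18,000 compounds, about 1,400 of them at 50% or above in at least one test.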

The filed quantity is “Percent Effect” (%). The record does not define 0% and 100%; most values in the screen are far below 50% and negative numbers occur (in some assays of this library far below -100). The compounds are a random part of those screened.

Compound	Mtb cholesterol medium	Mtb glucose medium
CCC(CNC(=O)c1ccncc1)N1CCCC1 (centres undefined)	-9.663	6.9
NC(=O)c1cc(Br)cc(S(=O)(=O)NCCF)c1	3.669	16
CNC(=O)CN(C)C(=O)c1cc2ccccc2cc1O	11.48	21.24
N[C@H]1CCN(c2ccccc2)C1	3.052	4.216
CCN(c1ccccc1)S(N)(=O)=O	1.401	0.6032
O=C(NCc1c[nH]c2ncccc12)C1CCC1	-10.65	13.6
CC1CCN(C(=O)c2cnn(-c3cccnc3)c2)CC1	60.92	73.84
CC(C)N(CCCNC(=O)c1ccoc1)S(C)(=O)=O	-5.314	20.22
CN(C)CC(=O)Nc1cccc(S(N)(=O)=O)c1	-23.44	0.2205
CCC(Nc1cccc(OCC(F)(F)F)c1)C(N)=O (centres undefined)	7.459	20.61
CCC1CCCCCN1C(=O)CCCN (centres undefined)	12.62	6.555
CCCS(=O)(=O)N1C[C@@H](CN(C)CCO)[C@@H](CO)C1	-14.33	-5.859
COCCn1ccc(NC2CCN(C)C2=O)n1 (centres undefined)	7.573	3.739
NC(=O)C1CCCN1S(=O)(=O)Cc1cc(Cl)ccc1F (centres undefined)	8.473	9.89
Cc1cccc(CS(=O)(=O)NCc2ccncc2)c1	30.68	43.67
COCc1nn(CC(=O)c2cc(F)ccc2F)c(=O)o1	-13.79	4.209
CCN(CCn1cc(Cl)cn1)[C@H]1COC[C@@H]1O	-14.06	-5.022
CN(Cc1ccc(Br)cc1)C(=O)CSc1nc(N)n[nH]1	46.68	68.21
CC(CO)N(C)C(=O)c1cccc2cc[nH]c12 (centres undefined)	-9.535	6.081
CCC(NC(=O)Cn1nc(C)c(Cl)c1C)[C@H]1C[C@H](O)C1 (some centres undefined)	6.689	13.66
O=C1CCCN1c1nc2ccccc2s1	-13.64	-19.15
CC(O)(CN)c1cccs1 (centres undefined)	14.12	12.82
Cc1nn(C)cc1C(C)Nc1ncccc1C#N (centres undefined)	25.94	27.5
CC(C)Oc1ccc(CNC(=O)C2CCC(=O)N2)cc1 (centres undefined)	6.668	8.181
CCNC1=NN=C(c2ccc(OC)c(F)c2)CS1	84.32	78.7
CC(C)CCNC(=O)c1cc2c([nH]c1=O)CCCC2=O	25.26	-4.265
O=C(CCCc1cn[nH]c1)N1[C@H]2CCNC[C@@H]1CC2	2.127	7.897
CC(C)(C)OC(=O)NC[C@@H]1CCC[C@H]1N	6.18	18.73
CC1(C)NCCC1O (centres undefined)	-6.387	-0.2476
CC(NS(C)(=O)=O)C(=O)NCCCc1ccncc1 (centres undefined)	11.63	40.29
N#CCCN(CCC#N)Cc1cc[nH]n1	-14.01	-3.323
Cc1cc(C(=O)N2CCCCC2)c2c(C)nn(C)c2n1	-23.58	-7.441
Cc1nc(NC(=O)Oc2ccccc2)no1	-8.02	0.528
CC(C)=CCN(C)CC1CCN(CCO)CC1	-24.04	-9.695
O=C(NCCNC(=O)c1ccn[nH]1)c1ccn[nH]1	8.783	6.496
CCOCC(O)CNc1nc2ccccc2c(=O)[nH]1 (centres undefined)	-1.888	-0.4058
Cc1cc(=O)c(C(=O)N2CCN(C)CC2C(C)C)c[nH]1 (centres undefined)	9.531	9.27
CSCC(CCO)NC(=O)c1c(C)cccc1C (centres undefined)	26.04	27.3
CCc1cnc(N)nc1NCC(O)CN(C)C (centres undefined)	0.1396	-1.946
NCC(c1cccs1)N1CCCC1 (centres undefined)	1.651	56.3
COC[C@@H](C)NC(=O)c1nc(SC)n2ccccc12	-29.77	-15.22
COc1ccc(NC(=O)C2(C)CCCN2)cc1 (centres undefined)	13.46	16.52
Cn1nccc1C(=O)N1CCN(Cc2cscn2)CC1	13.57	15.97
CCS(=O)(=O)c1ncc(CO)n1CCc1ccccc1	1.598	30.2
CCC(O)CNCc1ccccc1 (centres undefined)	8.328	12.02
CN(C)S(=O)(=O)N1CCCNCC1	-6.83	-3.138
CC(C)C(=O)N1CCC(C(=O)Nc2nccs2)CC1	-8.866	35.6
NC1CCCN(S(=O)(=O)C=Cc2cccc(Cl)c2)C1 (centres undefined)	70.48	79.13
Cc1cc(SCC(=O)NC(N)=O)nc2ccccc12	-12.43	-5.345
NCCS(=O)(=O)c1ccc(Br)cc1	13.24	41.09
NCc1cc(Oc2ccc(F)c(F)c2)ccn1	-5.996	-0.8473
COc1ccc(C(=O)Nc2nonc2NC(C)=O)cc1	52.87	51.48
c1ccc(CNc2ccncc2)nc1	9.399	8.582
CCn1cc(NC(=O)C(C)n2cccn2)cn1 (centres undefined)	-7.891	7.69
CN(Cc1ccsc1)Cc1ccc(S(=O)(=O)N(C)C)o1	62.57	30.62
COC[C@@H]1CCCN1Cc1cc2n(n1)CCNC2	-15.96	-7.596
CS(=O)(=O)C1CCCCN(C(=O)CC2CCSCC2)C1 (centres undefined)	-5.413	-0.3801
CCn1ccnc1CN1CCN(CCNC(C)=O)CC1	2.184	-3.193
COc1ccccc1NC(=O)CN1CCCC(OC)C1 (centres undefined)	28.93	46.67
COc1cccc(NC(=O)C(C)Sc2nnnn2C)c1 (centres undefined)	9.331	21.91
CCCN(CCO)CCC(=O)N1CCc2sccc2C1	27.32	47.41

Repeated from the top, 7 entries:

Compound,Mtb cholesterol medium,Mtb glucose medium
CCC(CNC(=O)c1ccncc1)N1CCCC1 (centres undefined),-9.663,6.9
NC(=O)c1cc(Br)cc(S(=O)(=O)NCCF)c1,3.669,16
CNC(=O)CN(C)C(=O)c1cc2ccccc2cc1O,11.48,21.24
N[C@H]1CCN(c2ccccc2)C1,3.052,4.216
CCN(c1ccccc1)S(N)(=O)=O,1.401,0.6032
O=C(NCc1c[nH]c2ncccc12)C1CCC1,-10.65,13.6
CC1CCN(C(=O)c2cnn(-c3cccnc3)c2)CC1,60.92,73.84

From ChEMBL document CHEMBL3988442, “University of Dundee, Small-Polar-MMV Screening Library” (2021).